At least one structure is not confirmed: it was looked up by name or label, or the drawing left a doubt. Residues, ends and D or L forms follow the SMILES beside them.
Experiments:
[1] = system: right cerebral artery ischemia/reperfusion model in rats; assay: Neurologic deficit score in rat 1.5-hour ischemia/reperfusion model; format: in vivo, Sprague-Dawley (SD) rats; settings: 3.6 mg/kg intraperitoneal once a day
[2] = Body weight of rats in 1.5-hour ischemia/reperfusion model; format: in vivo, Sprague-Dawley (SD) rats; settings: 3.6 mg/kg intraperitoneal once a day

CC(C)C[C@H](NC(=O)[C@H](CCC(N)=O)NC(=O)[C@@H](NC(=O)[C@H](CO)NC(=O)[C@H](Cc1c[nH]cn1)NC(=O)[C@@H](N)C(C)C)C(C)C)C(=O)N[C@@H](Cc1ccc(O)cc1)C(=O)O [compound of formula (III)] (H-VHSVQLY-OH)
neuroethology score (neurologic deficit score) compared to model group ([1]; I1.5R+1 week+dosing for 4 weeks, statistically significant in the second, third, fourth, fifth and seventh week after the operation): gradually declined neuroethology score
neurological scores compared to model group ([1]; I1.5R+2 weeks+dosing for 4 weeks, statistically significant at the fifth week after the operation): declined from the beginning of the administration
weight compared to model group ([2]; I1.5R+1 week+dosing for 4 weeks): gradually increased weight
weight compared to model group ([2]; I1.5R+2 weeks+dosing for 4 weeks, weight data cannot be demonstrative (groups already differed before administration)): gradually increased weight

— patent US20170044212A1, “COMPOUND FOR TREATING SEQUELAE OF ISCHEMIC CEREBRAL STROKE” (priority 2015, published 2017)
